Reference: patent US20240010720A1
Results are given in words; binding and its absence hold for the method and conditions named. Some results given as binding are weak or reduced against the parent protein; the word gives no strength.

T1: IGSF11-hFc (human) (UniProt Q5DX21)
T1 sequence: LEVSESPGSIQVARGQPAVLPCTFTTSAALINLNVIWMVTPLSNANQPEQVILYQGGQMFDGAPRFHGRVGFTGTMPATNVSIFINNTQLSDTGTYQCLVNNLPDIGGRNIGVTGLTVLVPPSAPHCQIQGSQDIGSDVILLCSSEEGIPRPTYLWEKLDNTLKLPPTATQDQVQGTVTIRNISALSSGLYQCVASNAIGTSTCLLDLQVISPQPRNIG


Key:
IGSF11-hFc (human) = target: T1, IGSF11-hFc (human); assay: ELISA EC50 grade, IgG1
[1] = target: IGSF11 ECD fused to murine-Fc (human; mouse) (UniProt Q5DX21); assay: ELISA: IgG titrated on coated murine-Fc fusion of IGSF11 ECD; x axis IgG nM, y axis absorption per legend
[2] = target: human IGSF11 (VSIG3) on cells (human) (UniProt Q5DX21); assay: flow cytometry: assay supernatants with A-006-like ABP (20 ug/ml) stained on fresh MDA-MB-231-luc/IGSF11 cells, anti-human IgG Fc Alexa Fluor 647
[3] = target: His-tagged extracellular domain (ECD) of human IGSF11 (VSIG3) (human) (UniProt Q5DX21); assay: blocking ELISA: IgG pre-incubated with His-tagged IGSF11 ECD, complexes added to immobilised VSIR-Fc; y axis % remaining IGSF11 binding, x axis IgG nM per legend
[4] = target: human IGSF11 (VSIG3) on cells (human) (UniProt Q5DX21); assay: FACS staining of COLO-741 cells, which naturally express IGSF11
[5] = target: IGSF11 ECD fused to murine-Fc (human; mouse) (UniProt Q5DX21); assay: BLI, IGSF11-mFc on sensor
[6] = target: human IGSF11 (VSIG3) on cells (human) (UniProt Q5DX21); assay: FACS, MDA-MB-231-luc cells transduced with IGSF11
[7] = target: His-tagged extracellular domain (ECD) of human IGSF11 (VSIG3) (human) (UniProt Q5DX21); assay: ELISA: IgG1-format antibody titrated on coated His-tagged IGSF11; x axis nM IgG, y axis absorbance per legend
[8] = target: His-tagged extracellular domain (ECD) of human IGSF11 (VSIG3) (human) (UniProt Q5DX21); assay: blocking ELISA: antibody pre-incubated with His-tagged IGSF11 ECD, complexes added to immobilised VSIR-Fc; y axis % remaining IGSF11 binding to VSIR, x axis nM IgG per legend
[9] = target: human IGSF11 (VSIG3) on cells (human) (UniProt Q5DX21); assay: FACS, MDA-MB-231-luc/IGSF11 cells, competitor soluble IGSF11-ECD-His 1.56-25 ug/mL
[10] = target: human IGSF11 (VSIG3) on cells (human) (UniProt Q5DX21); assay: FACS, COLO-741 cells
[11] = target: recombinant human IGSF11 (VSIG3) extracellular domain (ECD) (human) (UniProt Q5DX21); assay: BLI competition: biotinylated IGSF11 on streptavidin biosensor, ABP bound first, then VSIR multimer as competitor; traces Max (maximum VSIR binding), BL (baseline), SB (VSIR simultaneous binding) [Cont.) B]
[12] = target: IGSF11 ECD fused to murine-Fc (human; mouse) (UniProt Q5DX21); assay: BLI (Octet): IGSF11 murine-Fc fusion captured on the biosensor, IgG1-format ABP in solution at three concentrations (not given); x time (s), y response (nm) per legend [Cont.) D]
[13] = target: human IGSF11 (VSIG3) on cells (human) (UniProt Q5DX21); assay: flow cytometry on MDA-MB-231-luc cells transduced with IGSF11 lentiviral vector (A) or mock transduced (B); A-006 followed by anti-human IgG-AF647
[14] = target: His-tagged extracellular domain (ECD) of human IGSF11 (VSIG3) (human) (UniProt Q5DX21); assay: ELISA EC50 grade, IgG1
[15] = target: His-tagged extracellular domain (ECD) of human IGSF11 (VSIG3) (human) (UniProt Q5DX21); assay: ELISA, IgG1

Binder | binding (IGSF11-hFc (human)) | binding [7] | binding [8] | binding [14] | binding [15] | also measured
A-022 (IgG1 format) (antibody, V domains shown) VH: EVQLLESGPGLVKPSQTLSLTCTVSGGSISSGGYYWSWIRQHPGKGLEWIGYIYYSGSTYYNPSLKSRVTISVDTSKNQFSLKLSSVTAADTAVYYCARASRSTDYYFDYWGQGTLVTVSS VL: QPGLTQPPSMSYGLGQTATLTCTGNRNNIGDQGAAWLQQHQGHPPKLLSYRNNNGPSGISERLSASRSGNTASLTISGLQPEDEADYYCSAWDSSLRAWVFGGGTKLTVL | binds | – | – | – | – | –
A-035 (IgG1 format) (antibody, V domains shown) VH: QVQLVQSGAEVKKPGASVKVSCKASGYTFTGYYMHWVRQAPGQGLEWMGWINPNSGNTGYAQKFQGRVTMTRNTSISTAYMELSSLRSEDTAVYYCARGRLERGYWYFDLWGRGTLVTVSS VL: NFMLTQPHSVSESPGRTVTISCTRSSGSITSNYVQWYQQRPGSAPTILIYEDKERPSEVPDRFSGSIDISSNSASLTISGLKTEDEADYYCQSYGGTSQGVLFGGGTKVTVL | binds | – | – | – | – | –
A-006 (IgG1 format) (antibody, V domains shown) VH: EVQLVESGGGLIQPGGSLRLSCAASGFTVSSNYMSWVRQAPGKGLEWVSVIYSGGSTYYADSVKGRFTISRDNSKNTLYLQMNSLRAEDTAVYYCARGNPYYYGDLQVNFDYWGQGTLVTVSS VL: QAVVTQEPSLTVSPGGTVTLTCASSTGAVTSGYYPNWFQQKPGQAPRPLIYSTSNKHSWTPARFSGSLLGGKAALTLSGVQPDDEAEYYCLLYYGGDWVFGGGTKLTVL | – | binds | binds | – | – | binding [1]: binds; binding [2]: binds; binding [3]: binds; binding [4]: binds; binding [5]: binds; binding [6]: binds; binding [9]: binds; binding [10]: binds; binding [11]: binds; binding [12]: binds; binding [13]: binds
A-012 (IgG1 format) (antibody, V domains shown) VH: EVQLLESGGGLIQPGGSLRLSCAVSGFTVSSNYMSWVRQAPGKGLEWVSVIYSGGSTYYADSVKGRFTISRDNSKNTLYLQMNSLRAEDTAVYYCARGNPYYYGDLQVNFDYWGQGTLVTVSS VL: QAVVTQEPSLTVSPGGTVTLTCASSTGAVTSGYYPNWFQQKPGQAPRALIYSTSNKHSWTPARFSGSLLGGKAALTLSGVQPEDEAEYYCLLYYGGAWVFGGGTKLTVL | binds | – | – | – | – | –
A-013 (IgG1 format) (antibody, V domains shown) VH: EVQLVESGGGLIQPGGSLRLSCAASGFTVSSNYMSWVRQAPGKGLEWVSVIYSGGSTYYADSVKGRFTISRDNSKNTLYLQMNSLRAEDTAVYYCARGNPYYYGDLQVNFDYWGQGTLVTVSS VL: QAVVTQEPSLTVSPGGTVTLTCASSTGAVTSAYYPNWFQQKPGQAPRALIYSTSNKHSWTPARFSGSLLGGKAALTLSGVQPEDEADYYCLLYYGGAWVFGGGTKLTVL | binds | – | – | – | – | –
B-001 (chain-swapped IgG1) (antibody, V domains shown) VH: EVQLLESGGGLIQPGGSLRLSCAVSGFTVSSNYMSWVRQAPGKGLEWVSVIYSGGSTYYADSVKGRFTISRDNSKNTLYLQMNSLRAEDTAVYYCARGNPYYYGDLQVNFDYWGQGTLVTVSS VL: QAVVTQEPSLTVSPGGTVTLTCASSTGAVTSAYYPNWFQQKPGQAPRALIYSTSNKHSWTPARFSGSLLGGKAALTLSGVQPEDEADYYCLLYYGGAWVFGGGTKLTVL | – | binds | binds | binds | binds | –
B-002 (chain-swapped IgG1) (antibody, V domains shown) VH: EVQLVESGGGLIQPGGSLRLSCAASGFTVSSNYMSWVRQAPGKGLEWVSVIYSGGSTYYADSVKGRFTISRDNSKNTLYLQMNSLRAEDTAVYYCARGNPYYYGDLQVNFDYWGQGTLVTVSS VL: QAVVTQEPSLTVSPGGTVTLTCASSTGAVTSGYYPNWFQQKPGQAPRALIYSTSNKHSWTPARFSGSLLGGKAALTLSGVQPEDEAEYYCLLYYGGAWVFGGGTKLTVL | – | binds | binds | binds | binds | –

More lines, main results first:

binding (IGSF11-hFc (human)) | binding [7] | binding [8] | binding [14] | binding [15] | Binder | also measured
– | binds | binds | binds | binds | B-007 (chain-swapped IgG1) (antibody, V domains shown) VH: EVQLVESGGGLIQPGGSLRLSCAASGFTVSSNYMSWVRQAPGKGLEWVSVIYSGGSTYYADSVKGRFTISRDNSKNTLYLQMNSLRAEDTAVYYCARGNPYYYGDLQVNFDYWGQGTLVTVSS VL: QAVVTQEPSLTVSPGGTVTLTCASSTGAVTSAYYPNWFQQKPGQAPRALIYSTSNKHSWTPARFSGSLLGGKAALTLSGVQPEDEADYYCLLYYGGAWVFGGGTKLTVL | –
– | binds | binds | binds | binds | B-003 (chain-swapped IgG1) (antibody, V domains shown) VH: EVQLLESGGGLIQPGGSLRLSCAVSGFTVSSNYMSWVRQAPGKGLEWVSVIYSGGSTYYADSVKGRFTISRDNSKNTLYLQMNSLRAEDTAVYYCARGNPYYYGDLQVNFDYWGQGTLVTVSS VL: QAVVTQEPSLTVSPGETVTLTCASSTGAVTSGYYPNWFQQRPGQAPRALIYSTSNKDSWTPARFSGSLLGGKAALTLSGVQPEDEAEYYCLLYYGGAWVFGGGTKLTVL | –
– | binds | binds | binds | binds | B-004 (chain-swapped IgG1) (antibody, V domains shown) VH: EVQLLESGGGLIQPGGSLRLSCAVSGFTVSSNYMSWVRQAPGKGLEWVSVIYSGGSTYYADSVKGRFTISRDNSKNTLYLQMNSLRAEDTAVYYCARGNPYYYGDLQVNFDYWGQGTLVTVSS VL: QAVVTQEPSLTVSPGGTVTLTCASSTGAVTSGYYPNWFQQKPGQAPRPLIYSTSNKHSWTPARFSGSLLGGKAALTLSGVQPDDEAEYYCLLYYGGDWVFGGGTKLTVL | –
– | binds | binds | binds | binds | B-005 (chain-swapped IgG1) (antibody, V domains shown) VH: EVQLLESGGGLIQPGGSLRLSCAVSGFTVSSNYMSWVRQAPGKGLEWVSVIYSGGSTYYADSVKGRFTISRDNSKNTLYLQMNSLRAEDTAVYYCARGNPYYYGDLQVNFDYWGQGTLVTVSS VL: QAVVTQEPSLTVSPGGTVTPTCGSSTGAVTSGNLPNWFQQKPGQAPRALIYSTSNKHSWTPARISGSLLGGKAALTLSGVQPEDEAEYYCLLYYGGAWVFGGGTKLTVL | –
– | binds | binds | binds | binds | B-008 (chain-swapped IgG1) (antibody, V domains shown) VH: EVQLVESGGGLIQPGGSLRLSCAASGFTVSSNYMSWVRQAPGKGLEWVSVIYSGGSTYYADSVKGRFTISRDNSKNTLYLQMNSLRAEDTAVYYCARGNPYYYGDLQVNFDYWGQGTLVTVSS VL: QAVVTQEPSLTVSPGGTVTPTCGSSTGAVTSGNLPNWFQQKPGQAPRALIYSTSNKHSWTPARISGSLLGGKAALTLSGVQPEDEAEYYCLLYYGGAWVFGGGTKLTVL | –
– | binds | binds | binds | binds | B-006 (chain-swapped IgG1) (antibody, V domains shown) VH: EVQLVESGGGLIQPGGSLRLSCAASGFTVSSNYMSWVRQAPGKGLEWVSVIYSGGSTYYADSVKGRFTISRDNSKNTLYLQMNSLRAEDTAVYYCARGNPYYYGDLQVNFDYWGQGTLVTVSS VL: QAVVTQEPSLTVSPGETVTLTCASSTGAVTSGYYPNWFQQRPGQAPRALIYSTSNKDSWTPARFSGSLLGGKAALTLSGVQPEDEAEYYCLLYYGGAWVFGGGTKLTVL | –
